# In paper PMC3999954:
# These are yes or no findings as the source states them, for the method shown. Binding can be weak; no strength is given.
# B1: Ca.eIF4E1-pvr2^+ (protein, UniProt A0A1U8GR65 1-228)
# chain: MATAEMEKTTTFDEAEKVKLNANEADDEVEEGEIVEETDDTTSYLSKEIATKHPLEHSWTFWFDNPVAKSKQAAWGSSLRNVYTFSTVEDFWGAYNNIHHPSKLVVGADLHCFKHKIEPKWEDPVCANGGTWKMSFSKGKSDTSWLYTLLAMIGHQFDHEDEICGAVVSVRGKGEKISLWTKNAANETAQVSIGKQWKQFLDYSDSVGFIFHDDAKRLDRNAKNRYTV
# B2: Ca.eIFiso4E (protein, UniProt A0A1U8F5V2 1-202)
# chain: MATEAPPPVDTTEVPPFTAAETAVKQPHKLERKWTFWFDNQSKPKQGAAWGSSLKKAYTFDTVEEFWSLYDQIFKPSKLTVNADFHLFKAGIEPKWEDPECANGGKWTVTSSRKANLETMWLETLMALVGEQFDDSEDICGVVASVRRSQDKLSLWTKTATNEAAQMGIGRKWKEIIDTEKISYSFHDDSKRERSAKSRYTV
# B3: At.eIF4E1 (protein, UniProt O23252 1-235)
# chain: MAVEDTPKSVVTEEAKPNSIENPIDRYHEEGDDAEEGEIAGGEGDGNVDESSKSGVPESHPLEHSWTFWFDNPAVKSKQTSWGSSLRPVFTFSTVEEFWSLYNNMKHPSKLAHGADFYCFKHIIEPKWEDPICANGGKWTMTFPKEKSDKSWLYTLLALIGEQFDHGDEICGAVVNIRGKQERISIWTKNASNEAAQVSIGKQWKEFLDYNNSIGFIIHEDAKKLDRNAKNAYTA
# B4: At.eIFiso4E (protein, UniProt O04663-1 1-198)
# chain: MATDDVNEPLPAAAELPATEAEKQPHKLERKWSFWFDNQSKKGAAWGASLRKAYTFDTVEDFWGLHETIFQTSKLTANAEIHLFKAGVEPKWEDPECANGGKWTWVVTANRKEALDKGWLETLMALIGEQFDEADEICGVVASVRPQSKQDKLSLWTRTKSNEAVLMGIGKKWKEILDVTDKITFNNHDDSRRSRFTV
# Target: TEV HAT VPg (Tobacco etch virus (strain HAT))
# Experiment: two-hybrid; Matchmaker 3 yeast two-hybrid system (Clontech); TEV HAT VPg fused to the GAL4 binding domain (bait), eIF4E1 and eIFiso4E proteins fused to the activation domain (prey); growth on SD-LWH against SD-LW control; each combination in triplicate; empty vector controls for self-activation
row,Binder,binding
1,B1,binds
2,B2,no binding
3,B3,no binding
4,B4,no binding
